{"source": "patent US9070492B2", "about": "“Nanoporous metal multiple electrode array and method of making same” (THE GENERAL HOSPITAL CORPORATION, priority 2010, dated 2015)", "test_system": "organotypic hippocampus slices", "test": "Immunostaining quantification of gliosis in organotypic hippocampus slices", "format": "cell-based, Sprague-Dawley rat", "details": "Example II; 1 μM dexamethasone in serum-free medium for one week; CA3 and DG regions; p<0.05", "note": "For at least one compound, name, drawing or mass did not settle the structure.", "data": [{"smiles": "C[C@@H]1C[C@H]2[C@@H]3CCC4=CC(=O)C=C[C@]4(C)[C@@]3(F)[C@@H](O)C[C@]2(C)[C@@]1(O)C(=O)CO", "note": "[Dexamethasone, dexamethasone]", "values": [{"measurement": "number of proliferating cells (BrdU positive)", "result": "statistically significant reduction"}]}]}
